Results as given in PubChem BioAssay AID2685 (National Center for Advancing Translational Sciences (NCATS), 2010).
Some of the results follow. The main result of the screen is listed elsewhere. These columns were measured beside it and carry no call. The list favours compounds with an active or inconclusive main result. Words in brackets tell the shape of the fitted curve; partial curves, single points and poor fits give uncertain potencies.

Assay: qHTS Assay for Lipid Storage Modulators in Drosophila S3 Cells;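 on cell number change: cells counted by Cell Tracker Red CMTPX staining in the red channel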
Details: BODIPY lipid droplet fluorescence, 18-24 h; for cell number change: measured here: cell count max response, cells fed with added oleic acid
Procedure, shortened: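 Drosophila S3 cells loaded with oleic acid (400 uM, as added) and compounds at several concentrations; lipid droplets imaged by 488-nm laser-scanning cytometry, 500–530 nm intensity and object ratio to cell channel. Percent activity normalized to 20 uM Triacsin C.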

[1] = measured here: cell number channel AC50, cells fed with added oleic acid
[2] = measured here: lipid fluorescence (Fed channel) AC50, cells fed with added oleic acid

SMILES	cell number change [%]	AC50 [1]	AC50 [2]
N#CC(C(=O)NC1CC1)c1nc2ccccc2nc1N1CCCC1 (stereo not given)	3.28	–	–
Cc1ccc(-c2csc3nc4c5ccccc5c(NCCCN5CCOCC5)nn4c(=O)c23)cc1	7.32	2.06 µM [rising, partial curve, poor fit]	–
COc1ccccc1C(CC(=O)N1CCCC1)c1ccc2c(c1)OCO2 (stereo not given)	-36.3	29.1 µM [falling, single point]	23.1 µM [falling, single point]
Cc1ccc(N2CCN(C(=O)c3cc(COc4c(C)cccc4C)on3)CC2)c(C)c1	43.7	32.6 µM [rising, single point]	2.31 µM [falling, single point]
CC(=O)N1CCc2c(sc3c2c(=O)n(-c2ccccc2)c(=O)n3CC(=O)NCC2CCCO2)C1 (stereo not given)	11.5	–	3.26 µM [rising, full curve]
O=C(NCc1ccc(Cl)c(Cl)c1)c1cccnc1	2.87	–	7.31 µM [falling, single point]
O=C(COc1ccccc1)Nc1nc2cc3c(cc2s1)OCCO3	28.5	–	1 µM [rising, full curve]
CCOc1ccc(NC(=O)CN(c2ccc([N+](=O)[O-])cc2)S(=O)(=O)c2ccccc2)cc1	33.4	0.13 µM [rising, full curve, poor fit]	29.1 µM [rising, single point]
CC(O)c1ccc2c(c1)OCCOCCN(C)CCOCCO2 (stereo not given)	-21.7	–	1.16 µM [falling, full curve, poor fit]
Cc1cc(=O)oc2cc(OCc3ccc(C(=O)N4CCN(c5ccc([N+](=O)[O-])cc5)CC4)cc3)ccc12	70.6	18.4 µM [rising, single point]	16.4 µM [rising, single point]
CC(C)CN(C(=O)CCNC(=O)c1ccccc1Cl)C1CCS(=O)(=O)C1 (stereo not given)	-4.39	–	2.06 µM [rising, partial curve, poor fit]
Cc1ccccc1S(=O)(=O)N1[C@@H](c2cccc(Cl)c2)C(C(=O)O)=CC[C@H]1c1ccc(Cl)cc1	0.726	–	0.517 µM [rising, full curve, poor fit]
Cc1ccc(-n2nc(C)c(NS(=O)(=O)c3ccccc3)c2C)cc1C	47.6	0.366 µM [rising, full curve]	2.06 µM [rising, partial curve]
Cc1ccc(-c2ccc(=O)n(Cc3ccc(F)cc3)n2)cc1	-48.9	16.4 µM [falling, partial curve]	29.1 µM [falling, single point]
O=C(c1cccnc1)N1C2C=CC(C2)C1(C(F)(F)F)C(F)(F)F (stereo not given)	–	0.092 µM [rising, full curve, poor fit]	–
O=C(CCC(=O)OCc1cccc([N+](=O)[O-])c1)Nc1ccccc1Cl	-19.9	–	8.91 µM [falling, partial curve]
COc1ccc(C(=O)N2CCC(NC(=O)C(Cc3ccccc3OC)NC(C)=O)CC2)cc1 (stereo not given)	8.87	–	29.1 µM [rising, single point]
N/C(=N\OC(=O)c1cccc(C(F)(F)F)c1)c1cnccn1	–	–	6.51 µM [rising, partial curve]
O=C(CCc1nc2ccccc2c(=O)[nH]1)NCCN1C(=O)S/C(=C\c2ccccc2Cl)C1=O	33.8	9.2 µM [rising, partial curve]	9.2 µM [rising, partial curve]
CCC(C)[C@H](NC(=O)N1CC(=O)Nc2ccccc21)C(=O)N[C@@H](Cc1c[nH]c2ccccc12)C(=O)O (stereo not given in full)	38.8	29.1 µM [rising, single point]	–
Cc1cc2ccccn2c1C(=O)c1cccc(S(=O)(=O)N2CCOCC2)c1	15.2	–	0.103 µM [falling, full curve, poor fit]
CCOC(=O)c1c(NC(=O)COc2ncnc3ccccc23)sc(C)c1C	-18.1	3.66 µM [rising, single point]	–
CC(NC(=O)C1(c2cccs2)CCOCC1)c1ccccc1 (stereo not given)	-37.8	29.1 µM [falling, single point]	–
Oc1ccc(-c2csc(-c3cccnc3)n2)c(O)c1	-46.3	1.3 µM [falling, full curve]	29.1 µM [falling, single point]
O=C(CCc1nc2ccccc2c(=O)[nH]1)N1CCN(S(=O)(=O)c2ccc(Cl)c(C(F)(F)F)c2)CC1	8.88	1.64 µM [rising, partial curve, poor fit]	2.31 µM [rising, partial curve]
Cn1c(N)c(C(=O)COC(=O)c2cc(C3CC3)nc3ccccc23)c(=O)n(C)c1=O	-0.968	–	4.11 µM [rising, single point]
CC1CCN(c2ccc(NC(=O)c3cccnc3Cl)cc2)CC1	4.5	–	0.184 µM [falling, full curve, poor fit]

Entries of single compounds as entered above:
CC(NC(=O)C1(c2cccs2)CCOCC1)c1ccccc1 (stereo not given) as listed: cell number change [%]: -37.8; AC50 [1]: 29.1 µM [falling, single point]
COc1ccccc1C(CC(=O)N1CCCC1)c1ccc2c(c1)OCO2 (stereo not given) as listed: cell number change [%]: -36.3; AC50 [1]: 29.1 µM [falling, single point]; AC50 [2]: 23.1 µM [falling, single point]
N/C(=N\OC(=O)c1cccc(C(F)(F)F)c1)c1cnccn1 as listed: AC50 [2]: 6.51 µM [rising, partial curve]

The results go on.

SMILES	cell number change [%]	AC50 [1]	AC50 [2]
Cc1cccc(-n2nnnc2SCn2nnc3ccccc3c2=O)c1	-33.7	0.651 µM [falling, full curve, poor fit]	1.46 µM [rising, partial curve, poor fit]
Cc1nc2ccc(C(=O)OCc3nnc(-c4ccccc4)o3)cc2nc1C	-22.1	–	29.1 µM [falling, single point]
N#CC1=C(N)N(c2ccc(Cl)c(Cl)c2)C(=O)C1	–	6.51 µM [falling, single point]	–
CCOc1ccc(OCC(=O)N2CCOCC2)cc1	-22.2	–	6.51 µM [falling, single point]
Cc1ccc(N2CC(C(=O)NCCC3=CCCCC3)CC2=O)cc1 (stereo not given)	-0.155	2.91 µM [falling, single point]	5.8 µM [falling, full curve]
COc1ccc(OC)c(S(=O)(=O)n2ccnc2C)c1	50	3.66 µM [rising, partial curve]	1.84 µM [rising, partial curve]
c1ccc(C[n+]2cccc3c4ccccc4ccc32)cc1	-12.5	–	6.51 µM [falling, single point]
COCCNC(=O)c1ccc2c3n(nc2c1)-c1ccc(C)cc1CO3	17.3	–	0.82 µM [rising, full curve]
O=C(COC(=O)C12CC3CC(CC(C3)C1)C2)Nc1ccc(OC(F)F)cc1	-39.8	18.4 µM [falling, partial curve, poor fit]	–
OC1CCN(Cc2cn(Cc3ccccc3)nc2-c2cc3ccccc3o2)CC1	15.3	–	18.4 µM [rising, partial curve]
Cc1nnc(SCC(=O)Nc2cc(S(=O)(=O)N3CCCC3)ccc2Cl)s1	-26.6	–	20.6 µM [falling, partial curve, poor fit]
CC(C)(CNC(=S)NCCc1ccccc1)CNC(=S)NCCc1ccccc1	-18.1	–	29.1 µM [falling, single point]
COC(=O)CN1C(=O)C(C)(C)Oc2ccc(C(=O)Nc3cccc(OC)c3)cc21	-14.5	–	0.631 µM [rising, full curve]
Cc1ccc(-n2c(SCC(=O)NC3CCS(=O)(=O)C3)nc3ccccc3c2=O)cc1C (stereo not given)	26.7	–	0.651 µM [rising, single point]
CCN(CC(=O)Nc1cc(C)c(Cl)cc1OC)CC(=O)NC1CCS(=O)(=O)C1 (stereo not given)	–	–	3.26 µM [rising, single point]
CN(C(=O)COC(=O)C1c2ccccc2Oc2ccccc21)C1CCS(=O)(=O)C1 (stereo not given)	2.73	–	–
Cc1ccccc1OCCn1c(=O)oc2ccccc21	7.19	–	5.17 µM [rising, partial curve]
COc1ccc(/C=N/Nc2nc(NCc3ccco3)nc(Nc3ccc(OC)cc3)n2)cc1	33.1	4.61 µM [rising, partial curve]	29.1 µM [rising, single point]
Cc1ccc(NC2CCCN(C(=O)CCN3CCOCC3)C2)cc1C (stereo not given)	-2.6	–	29.1 µM [rising, single point]
Cc1cc(C(=O)CSc2nnc(-c3ccco3)o2)c(C)n1-c1ccc2c(c1)OCCO2	-5.81	–	0.164 µM [falling, full curve, poor fit]
Cc1onc(-c2ccccc2)c1C(=O)N1CCCC(C(F)(F)F)C1 (stereo not given)	10.2	–	–
O=C(COC(=O)c1ccc(Br)o1)Nc1ncc([N+](=O)[O-])s1	2.89	–	–
COc1ccc(NC(=O)c2c(NC(=O)CNCc3ccco3)sc3c2CCC3)cc1	-29.2	–	20.6 µM [falling, partial curve, poor fit]
COc1ccccc1NC(=O)c1ccc(Cl)c(S(=O)(=O)N2CCOCC2)c1	-2.37	–	0.731 µM [rising, full curve, poor fit]
C=CCNc1nc(Cl)nc(Nc2ccc(OCC)cc2)n1	-36	29.1 µM [falling, single point]	29.1 µM [falling, single point]
COc1ccc(S(=O)(=O)N2CCC(C(=O)NC3CC3)CC2)cc1C	102	13 µM [rising, partial curve, poor fit]	29.1 µM [rising, single point]
CCOc1ccccc1NC(=O)CSc1nnc(-c2cccnc2)o1	-8.04	–	0.00517 µM [falling, full curve, poor fit]
